This is one part of the list.
Legend:
Experiment in all cases: log2 fold change, soluble protein after heating vs DMSO (PISA); higher = thermal stabilisation; K562 cells, 10 uM, 30 min; active = over 0.2 and 3.5 SD of the protein, either way, in both replicates (recomputed)
[1] = compound: COC1=CC=C(C=C1)CN2C=CC3=C2C=C(C=C3)C(=O)NO
Method in brief: (§1)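 K562 cells at 2×10^6 cells/mL were treated with 10 μM compound for 30 min. Aliquots were heated for 3 min across 48°C-58°C, pooled, and extracted in PBS with 0.5% NP-40 at 4°C; soluble protein was the supernatant after 21,000xg for 90 min. Soluble protein was quantified by TMTpro 16plex LC-MS/MS with channel sums equalised, and reported as log2 fold change in thermal stability against DMSO controls, with values from duplicates.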

The chains behind the UniProt entries cited, without tags or fusion partners. Where a name states a change or a piece, a line headed by the entry shows the natural chain unless it says otherwise.
UniProt Q8IWV2: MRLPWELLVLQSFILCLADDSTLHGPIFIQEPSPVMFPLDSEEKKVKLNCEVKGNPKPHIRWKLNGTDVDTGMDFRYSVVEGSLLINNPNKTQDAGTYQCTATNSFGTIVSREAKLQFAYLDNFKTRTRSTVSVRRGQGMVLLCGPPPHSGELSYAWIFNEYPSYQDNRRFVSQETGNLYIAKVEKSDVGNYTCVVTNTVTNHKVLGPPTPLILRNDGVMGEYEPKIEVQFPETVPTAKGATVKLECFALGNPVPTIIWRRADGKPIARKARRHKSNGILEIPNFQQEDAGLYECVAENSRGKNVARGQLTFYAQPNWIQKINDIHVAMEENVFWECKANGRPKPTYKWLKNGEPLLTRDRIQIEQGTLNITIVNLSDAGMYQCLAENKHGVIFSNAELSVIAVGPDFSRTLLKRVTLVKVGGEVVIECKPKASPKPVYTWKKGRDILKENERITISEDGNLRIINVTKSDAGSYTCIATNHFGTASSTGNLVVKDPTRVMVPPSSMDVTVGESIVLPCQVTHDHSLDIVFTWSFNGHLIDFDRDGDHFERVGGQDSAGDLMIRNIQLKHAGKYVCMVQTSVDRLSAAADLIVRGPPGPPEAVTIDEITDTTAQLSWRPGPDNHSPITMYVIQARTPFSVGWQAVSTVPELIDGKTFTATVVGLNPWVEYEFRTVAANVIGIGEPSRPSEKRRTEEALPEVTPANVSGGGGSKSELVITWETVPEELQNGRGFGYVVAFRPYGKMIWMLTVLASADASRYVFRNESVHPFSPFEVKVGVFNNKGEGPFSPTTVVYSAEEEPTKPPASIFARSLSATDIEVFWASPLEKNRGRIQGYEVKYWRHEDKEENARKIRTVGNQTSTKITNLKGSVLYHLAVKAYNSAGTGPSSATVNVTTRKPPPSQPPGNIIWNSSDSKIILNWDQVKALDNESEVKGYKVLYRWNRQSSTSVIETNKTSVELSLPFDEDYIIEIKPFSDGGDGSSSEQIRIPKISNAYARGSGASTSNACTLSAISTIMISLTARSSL
UniProt P12277: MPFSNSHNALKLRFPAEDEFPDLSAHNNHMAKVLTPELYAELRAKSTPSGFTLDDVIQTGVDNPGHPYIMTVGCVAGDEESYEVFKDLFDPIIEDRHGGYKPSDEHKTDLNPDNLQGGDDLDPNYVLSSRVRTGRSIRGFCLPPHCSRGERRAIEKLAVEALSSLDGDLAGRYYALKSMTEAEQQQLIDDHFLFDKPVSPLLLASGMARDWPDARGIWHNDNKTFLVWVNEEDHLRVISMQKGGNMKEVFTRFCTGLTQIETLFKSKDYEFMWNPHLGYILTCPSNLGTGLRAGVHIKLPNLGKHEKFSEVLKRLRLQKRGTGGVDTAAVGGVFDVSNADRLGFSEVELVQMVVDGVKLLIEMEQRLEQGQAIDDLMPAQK
UniProt Q8N5K1: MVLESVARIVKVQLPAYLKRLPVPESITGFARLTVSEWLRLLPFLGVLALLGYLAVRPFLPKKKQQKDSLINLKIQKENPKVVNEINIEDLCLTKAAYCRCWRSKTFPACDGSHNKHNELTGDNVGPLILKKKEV
UniProt Q96MX0: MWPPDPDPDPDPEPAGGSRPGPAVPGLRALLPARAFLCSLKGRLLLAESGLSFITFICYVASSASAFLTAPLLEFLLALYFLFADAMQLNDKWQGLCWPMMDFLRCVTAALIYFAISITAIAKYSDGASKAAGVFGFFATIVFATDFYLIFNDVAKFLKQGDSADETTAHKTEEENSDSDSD
UniProt Q9NYJ1, whole entry, looked up: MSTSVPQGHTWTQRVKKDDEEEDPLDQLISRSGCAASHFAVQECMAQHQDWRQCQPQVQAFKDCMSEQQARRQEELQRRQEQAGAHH
UniProt P30622: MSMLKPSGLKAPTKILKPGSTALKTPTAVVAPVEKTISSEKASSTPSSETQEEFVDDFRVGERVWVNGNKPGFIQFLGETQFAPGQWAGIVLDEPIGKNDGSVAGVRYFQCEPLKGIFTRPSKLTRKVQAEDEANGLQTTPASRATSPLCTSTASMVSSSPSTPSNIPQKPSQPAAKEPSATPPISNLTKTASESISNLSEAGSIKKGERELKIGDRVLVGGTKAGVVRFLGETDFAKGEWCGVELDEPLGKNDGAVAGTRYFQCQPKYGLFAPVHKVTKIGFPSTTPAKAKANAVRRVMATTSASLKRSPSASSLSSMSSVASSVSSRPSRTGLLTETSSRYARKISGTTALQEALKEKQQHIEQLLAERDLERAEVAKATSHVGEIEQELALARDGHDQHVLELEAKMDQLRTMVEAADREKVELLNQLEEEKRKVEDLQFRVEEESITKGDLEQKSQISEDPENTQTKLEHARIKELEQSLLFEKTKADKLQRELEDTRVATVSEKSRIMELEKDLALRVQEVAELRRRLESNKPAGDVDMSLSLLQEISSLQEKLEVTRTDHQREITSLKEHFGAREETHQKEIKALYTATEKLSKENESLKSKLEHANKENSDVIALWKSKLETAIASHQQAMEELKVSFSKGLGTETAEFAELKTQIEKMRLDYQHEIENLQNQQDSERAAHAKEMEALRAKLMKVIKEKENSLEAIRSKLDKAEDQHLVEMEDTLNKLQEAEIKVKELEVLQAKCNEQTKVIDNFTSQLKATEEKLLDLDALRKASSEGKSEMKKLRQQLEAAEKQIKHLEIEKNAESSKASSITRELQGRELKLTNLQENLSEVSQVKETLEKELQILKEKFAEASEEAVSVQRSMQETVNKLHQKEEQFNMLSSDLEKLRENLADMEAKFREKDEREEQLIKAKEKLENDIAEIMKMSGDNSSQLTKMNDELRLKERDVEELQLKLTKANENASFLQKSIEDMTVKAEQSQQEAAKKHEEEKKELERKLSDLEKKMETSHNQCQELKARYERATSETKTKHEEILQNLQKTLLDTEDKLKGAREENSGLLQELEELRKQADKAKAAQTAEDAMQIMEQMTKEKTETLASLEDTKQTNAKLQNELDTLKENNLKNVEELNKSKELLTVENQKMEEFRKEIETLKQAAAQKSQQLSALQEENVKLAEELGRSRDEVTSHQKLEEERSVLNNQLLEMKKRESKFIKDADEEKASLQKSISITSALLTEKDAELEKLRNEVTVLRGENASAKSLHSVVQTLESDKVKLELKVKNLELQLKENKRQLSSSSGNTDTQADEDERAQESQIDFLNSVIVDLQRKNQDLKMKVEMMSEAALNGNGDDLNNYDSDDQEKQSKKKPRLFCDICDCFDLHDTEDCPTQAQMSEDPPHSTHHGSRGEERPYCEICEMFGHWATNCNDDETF
UniProt P51788: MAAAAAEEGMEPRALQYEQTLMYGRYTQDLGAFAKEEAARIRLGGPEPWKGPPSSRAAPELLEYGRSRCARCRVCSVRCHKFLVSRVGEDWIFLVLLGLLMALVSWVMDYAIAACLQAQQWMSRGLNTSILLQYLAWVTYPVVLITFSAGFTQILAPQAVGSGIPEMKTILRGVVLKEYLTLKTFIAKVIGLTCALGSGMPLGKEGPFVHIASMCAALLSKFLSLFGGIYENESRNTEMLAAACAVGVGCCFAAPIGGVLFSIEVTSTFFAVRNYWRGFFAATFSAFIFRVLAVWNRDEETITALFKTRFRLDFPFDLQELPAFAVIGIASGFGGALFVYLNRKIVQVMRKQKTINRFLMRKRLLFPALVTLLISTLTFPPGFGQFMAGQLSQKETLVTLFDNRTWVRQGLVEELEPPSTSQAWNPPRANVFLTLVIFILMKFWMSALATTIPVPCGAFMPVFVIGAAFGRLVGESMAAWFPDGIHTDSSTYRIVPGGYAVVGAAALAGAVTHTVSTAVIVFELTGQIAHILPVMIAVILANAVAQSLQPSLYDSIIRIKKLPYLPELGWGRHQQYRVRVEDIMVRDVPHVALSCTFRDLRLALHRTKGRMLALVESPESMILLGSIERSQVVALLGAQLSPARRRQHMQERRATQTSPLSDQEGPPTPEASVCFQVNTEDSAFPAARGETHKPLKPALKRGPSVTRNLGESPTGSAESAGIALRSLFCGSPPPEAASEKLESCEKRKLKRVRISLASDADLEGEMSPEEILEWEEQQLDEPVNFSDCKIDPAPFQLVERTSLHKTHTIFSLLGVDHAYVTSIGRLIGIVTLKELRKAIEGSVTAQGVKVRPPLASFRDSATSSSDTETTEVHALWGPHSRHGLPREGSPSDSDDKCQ
UniProt A5YKK6, whole entry, looked up: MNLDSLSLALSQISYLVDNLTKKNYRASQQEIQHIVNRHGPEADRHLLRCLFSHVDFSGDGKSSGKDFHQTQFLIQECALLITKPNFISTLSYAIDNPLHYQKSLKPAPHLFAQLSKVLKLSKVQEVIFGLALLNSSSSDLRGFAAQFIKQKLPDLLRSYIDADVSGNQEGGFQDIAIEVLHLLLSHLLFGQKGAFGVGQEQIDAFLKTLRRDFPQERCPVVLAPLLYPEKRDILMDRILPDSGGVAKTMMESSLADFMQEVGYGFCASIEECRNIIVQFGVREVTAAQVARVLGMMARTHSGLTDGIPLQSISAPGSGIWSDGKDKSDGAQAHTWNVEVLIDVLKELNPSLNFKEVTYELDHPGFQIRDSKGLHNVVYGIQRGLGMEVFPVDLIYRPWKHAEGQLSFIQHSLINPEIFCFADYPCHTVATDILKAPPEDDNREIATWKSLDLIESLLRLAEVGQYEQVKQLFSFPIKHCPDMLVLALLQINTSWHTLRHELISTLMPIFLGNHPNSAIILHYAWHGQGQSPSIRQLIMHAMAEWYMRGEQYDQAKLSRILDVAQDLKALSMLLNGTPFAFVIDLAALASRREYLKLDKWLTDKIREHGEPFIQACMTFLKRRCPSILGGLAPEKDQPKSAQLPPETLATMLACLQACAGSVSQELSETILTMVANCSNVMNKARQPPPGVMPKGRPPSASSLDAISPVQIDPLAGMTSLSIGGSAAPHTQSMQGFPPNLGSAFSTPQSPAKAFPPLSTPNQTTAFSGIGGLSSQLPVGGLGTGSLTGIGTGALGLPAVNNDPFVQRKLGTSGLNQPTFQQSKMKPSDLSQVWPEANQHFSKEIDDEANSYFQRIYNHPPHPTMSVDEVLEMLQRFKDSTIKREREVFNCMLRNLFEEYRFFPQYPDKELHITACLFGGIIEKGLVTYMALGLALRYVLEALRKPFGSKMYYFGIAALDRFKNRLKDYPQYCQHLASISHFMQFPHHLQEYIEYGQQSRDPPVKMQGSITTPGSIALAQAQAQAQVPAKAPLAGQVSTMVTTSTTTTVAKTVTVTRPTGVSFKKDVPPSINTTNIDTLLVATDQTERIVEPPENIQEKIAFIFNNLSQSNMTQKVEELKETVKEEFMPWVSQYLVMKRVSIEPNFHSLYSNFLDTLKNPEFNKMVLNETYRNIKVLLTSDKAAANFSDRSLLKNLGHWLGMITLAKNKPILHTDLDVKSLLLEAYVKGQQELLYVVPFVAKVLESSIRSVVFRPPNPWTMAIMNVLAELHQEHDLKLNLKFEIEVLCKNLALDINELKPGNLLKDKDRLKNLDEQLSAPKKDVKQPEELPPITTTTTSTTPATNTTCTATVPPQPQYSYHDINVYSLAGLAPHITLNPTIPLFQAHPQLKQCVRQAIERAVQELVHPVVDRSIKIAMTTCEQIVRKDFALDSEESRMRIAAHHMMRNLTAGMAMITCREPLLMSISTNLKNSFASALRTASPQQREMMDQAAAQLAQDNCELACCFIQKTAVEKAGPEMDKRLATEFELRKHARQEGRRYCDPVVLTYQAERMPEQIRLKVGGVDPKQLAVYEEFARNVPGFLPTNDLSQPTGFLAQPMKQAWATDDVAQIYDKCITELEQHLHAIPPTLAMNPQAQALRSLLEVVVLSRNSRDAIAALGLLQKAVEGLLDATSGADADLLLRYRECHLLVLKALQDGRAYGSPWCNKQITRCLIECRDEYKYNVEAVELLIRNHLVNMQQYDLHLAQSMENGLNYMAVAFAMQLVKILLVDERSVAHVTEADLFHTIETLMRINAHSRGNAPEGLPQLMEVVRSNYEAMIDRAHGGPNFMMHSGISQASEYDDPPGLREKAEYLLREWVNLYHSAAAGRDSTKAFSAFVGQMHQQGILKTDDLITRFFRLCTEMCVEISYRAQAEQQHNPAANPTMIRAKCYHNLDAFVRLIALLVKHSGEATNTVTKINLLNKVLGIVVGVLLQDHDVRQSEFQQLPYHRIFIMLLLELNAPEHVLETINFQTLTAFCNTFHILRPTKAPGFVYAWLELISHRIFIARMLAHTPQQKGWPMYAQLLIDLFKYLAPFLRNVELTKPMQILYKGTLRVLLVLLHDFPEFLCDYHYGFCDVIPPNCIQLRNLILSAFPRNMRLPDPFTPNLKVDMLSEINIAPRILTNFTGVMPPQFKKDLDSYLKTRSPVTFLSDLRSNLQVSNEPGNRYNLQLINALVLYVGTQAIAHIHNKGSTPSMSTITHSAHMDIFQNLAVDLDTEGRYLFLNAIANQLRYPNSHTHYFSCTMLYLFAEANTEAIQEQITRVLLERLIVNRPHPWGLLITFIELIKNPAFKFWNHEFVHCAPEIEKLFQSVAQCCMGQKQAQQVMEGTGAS

filanesib = compound: CON(C)C(=O)N1N=C(c2cc(F)ccc2F)S[C@@]1(CCCN)c1ccccc1 [filanesib]
Method in brief: as §1

zotarolimus = compound: CO[C@H]1C[C@@H]2CC[C@@H](C)[C@@](O)(O2)C(=O)C(=O)N2CCCC[C@H]2C(=O)O[C@H]([C@H](C)C[C@@H]2CC[C@H](n3cnnn3)[C@H](OC)C2)CC(=O)[C@H](C)/C=C(\C)[C@@H](O)[C@@H](OC)C(=O)[C@H](C)C[C@H](C)/C=C/C=C/C=C/1C [zotarolimus]
Method in brief: as §1

idasanutlin = compound: COc1cc(C(=O)O)ccc1NC(=O)[C@@H]1N[C@@H](CC(C)(C)C)[C@](C#N)(c2ccc(Cl)cc2F)[C@H]1c1cccc(Cl)c1F [idasanutlin]
Method in brief: as §1

alisertib = compound: COc1cc(Nc2ncc3c(n2)-c2ccc(Cl)cc2C(c2c(F)cccc2OC)=NC3)ccc1C(=O)O [alisertib]
Method in brief: as §1

[2] = compound: COc1cc2nc(-c3cc(F)ccc3O)nc(N[C@@H]3CNC[C@H]3C(C)(C)O)c2cc1OC
Method in brief: as §1

gefitinib = compound: COc1cc2ncnc(Nc3ccc(F)c(Cl)c3)c2cc1OCCCN1CCOCC1 [gefitinib]
Method in brief: as §1

[3] = compound: COc1cccc2cc(-c3nc([C@H]4CC[C@H](C(=O)O)CC4)n4ncnc(N)c34)[nH]c12
Method in brief: as §1

lapatinib = compound: CS(=O)(=O)CCNCc1ccc(-c2ccc3ncnc(Nc4ccc(OCc5cccc(F)c5)c(Cl)c4)c3c2)o1 [lapatinib]
Method in brief: as §1

pictilisib = compound: CS(=O)(=O)N1CCN(Cc2cc3nc(-c4cccc5[nH]ncc45)nc(N4CCOCC4)c3s2)CC1 [pictilisib]
Method in brief: as §1

Row | Target | log2 fold change [1] | log2 fold change (filanesib) | log2 fold change (zotarolimus) | log2 fold change (idasanutlin) | log2 fold change (alisertib) | log2 fold change [2] | log2 fold change (gefitinib) | log2 fold change [3] | log2 fold change (lapatinib) | log2 fold change (pictilisib)
1 | CNTN4 (UniProt Q8IWV2) | inactive: 0.1 | inactive: 0 | inactive: 0.017 | inactive: -0.148 | inactive: -0.399 | inactive: 0.341 | inactive: -0.039 | inactive: -0.169 | inactive: -0.047 | inactive: 0.222
2 | CIT isoform 4 (UniProt O14578) | inactive: -0.099 | inactive: 0.055 | inactive: -0.003 | inactive: 0.027 | inactive: -0.036 | active: -0.228 | inactive: -0.12 | inactive: -0.06 | inactive: 0.031 | inactive: -0.044
3 | CLUH, A0A494C0R8 | inactive: 0.131 | inactive: 0.168 | inactive: -0.065 | inactive: 0.027 | inactive: 0.007 | inactive: -0.024 | inactive: 0.078 | inactive: -0.227 | inactive: -0.011 | 
4 | CNPY3 (UniProt Q9BT09) | inactive: -0.04 | inactive: -0.014 | inactive: -0.031 | inactive: -0.022 | inactive: -0.023 | inactive: 0.001 | inactive: -0.008 | inactive: 0.029 | inactive: -0.057 | inactive: 0.056
5 | COA7 (UniProt Q96BR5) | inactive: 0.013 | inactive: -0.082 | inactive: -0.018 | inactive: -0.026 | inactive: -0.038 | inactive: -0.081 | inactive: 0.019 | inactive: 0.036 | inactive: 0.086 | inactive: -0.001
6 | CKB (UniProt P12277) | inactive: -0.031 | inactive: -0.097 | inactive: 0.061 | inactive: -0.047 | inactive: -0.093 | inactive: -0.007 | inactive: 0.002 | inactive: 0.01 | inactive: 0.016 | inactive: 0.022
7 | CISD2 (UniProt Q8N5K1) | inactive: -0.008 | inactive: -0.055 | inactive: -0.026 | inactive: -0.025 | inactive: -0.067 | inactive: 0.029 | inactive: 0.014 | inactive: 0.013 | inactive: -0.002 | inactive: -0.017
8 | CIAO1 (UniProt O76071) | inactive: 0.019 | inactive: -0.055 | inactive: -0.005 | inactive: -0.016 | inactive: -0.027 | inactive: -0.01 | inactive: 0.006 | inactive: 0.046 | inactive: -0.148 | inactive: 0.019
9 | CKMT1A (UniProt P12532) | inactive: -0.028 | inactive: 0.024 | inactive: -0.036 | inactive: -0.005 | inactive: -0.021 | inactive: 0.045 | inactive: 0.009 | inactive: -0.051 | inactive: -0.027 | inactive: 0.064
10 | CMTM3 (UniProt Q96MX0) | inactive: -0.122 | inactive: 0.105 | inactive: -0.075 | inactive: -0.045 | inactive: -0.069 | inactive: -0.018 | inactive: 0.021 | inactive: 0.035 | inactive: -0.062 | inactive: -0.091
11 | COA4 isoform 2 (UniProt Q9NYJ1) | inactive: 0.025 | inactive: 0.124 | inactive: 0.041 | inactive: -0.051 | inactive: -0.094 | inactive: -0.114 | inactive: 0.019 | inactive: 0.051 | inactive: -0.067 | inactive: 0.04
12 | CLIP1 isoform 1 (UniProt P30622) | inactive: -0.046 | inactive: -0.02 | inactive: -0.01 | inactive: 0.011 | inactive: -0.018 | inactive: 0.031 | inactive: 0.008 | inactive: 0.024 | inactive: -0.029 | 
13 | CLCN2 (UniProt P51788) | inactive: 0.075 | inactive: 0.004 | inactive: -0.047 | inactive: -0.006 | inactive: -0.017 | inactive: -0.005 | inactive: 0.171 | inactive: -0.005 | inactive: -0.005 | 
14 | CNOT6L (UniProt Q96LI5) | inactive: 0.01 | inactive: 0.06 | inactive: 0.001 | inactive: 0.21 | inactive: -0.123 | inactive: 0.055 | inactive: 0.08 | inactive: -0.027 | inactive: 0.156 | inactive: -0.133
15 | CNOT1 (UniProt A5YKK6) | inactive: 0.002 | inactive: -0.019 | inactive: 0.02 | inactive: -0.032 | inactive: -0.022 | inactive: 0.053 | inactive: -0.021 | inactive: -0.031 | inactive: 0.02 | inactive: -0.046

Look-ups from the entries so far.
log2 fold change (alisertib) with COA7 (UniProt Q96BR5) reads inactive: -0.038
log2 fold change [2] with CLUH, A0A494C0R8 reads inactive: -0.024
